Where a name gives a salt, the structure may show the parent alone. The list shows a part of the results. Repeats in this data set agree poorly, so a single value says little.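 The cells were human embryonic kidney cells carrying a Renilla luciferase gene, driven by the HSV-TK promoter, on a plasmid put in briefly by transfection. This is the first-round screen of about ten thousand compounds, looking for ones that raise reporter output.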
These molecules were tested on HEK 293FT (assay: log relative Renilla luciferase luminescence (reporter expression vs reference, reference not stated) (log (base not stated)); higher = higher recombinant reporter expression). Conditions: 10 µM; time after transfection 48 h.

| SMILES | log |
| --- | --- |
| O=C(c1ccccc1)c1ccc2n1CCC2C(=O)O (configuration not stated) [ketorolac tromethamine] | 0.159 |
| OCc1ccccc1O [salicyl alcohol] | 0.00789 |
| CN1Cc2c(N)cccc2C(c2ccccc2)C1 (configuration not stated) [nomifensine maleate] | -0.0596 |
| FC(F)(F)COCC(F)(F)F [flurothyl] | -0.073 |
| CCN[C@@H]1C[C@H](N)[C@@H](O[C@H]2OC(CN)=CC[C@H]2N)[C@H](O)[C@H]1O[C@H]1OC[C@](C)(O)[C@H](NC)[C@H]1O [netilmicin sulfate] | -0.105 |
| CC(C)(O)c1ccccc1CC[C@@H](SCC1(CC(=O)O)CC1)c1cccc(/C=C/c2ccc3ccc(Cl)cc3n2)c1 [montelukast sodium] | -0.0331 |
| C=C(C)[C@@H]1CC=C(CO)CC1 [perillyl alcohol] | 0.0749 |
| COC1=C(OC)C(=O)C(C/C=C(\C)CC/C=C(\C)CC/C=C(\C)CC/C=C(/C)CC/C=C(\C)CC/C=C(\C)CC/C=C(\C)CC/C=C(\C)CC/C=C(\C)CCC=C(C)C)=C(C)C1=O [ubidecareneone] | 0.0695 |
| CC(=O)Oc1cccc(C)c1 [meta-cresyl acetate] | -0.165 |
| Cc1cc(O)c2c(O)c3c(O)cccc3cc2c1 [chrysarobin] | 0.102 |
| C=CCSCC1Nc2cc(Cl)c(S(N)(=O)=O)cc2S(=O)(=O)N1 (configuration not stated) [althiazide] | -0.144 |
| Cc1cc(-c2ccc(/N=N/c3ccc4c(S(=O)(=O)O)cc(S(=O)(=O)O)c(N)c4c3O)c(C)c2)ccc1/N=N/c1ccc2c(S(=O)(=O)O)cc(S(=O)(=O)O)c(N)c2c1O [evans blue] | -0.133 |
| c1ccc(CN(CC2=NCCN2)c2ccccc2)cc1 [antazoline phosphate] | -0.549 |
| COc1cc(/C=C/C(=O)N2CCCCCCC2)cc(OC)c1OC [cinoctramide] | 0.0237 |
| NC(=O)NS(=O)(=O)c1ccc(N)cc1 [sulfacarbamide] | 0.121 |
| CC(=O)N(CC(O)CN(C(C)=O)c1c(I)c(C(=O)NCC(O)CO)c(I)c(C(=O)NCC(O)CO)c1I)c1c(I)c(C(=O)NCC(O)CO)c(I)c(C(=O)NCC(O)CO)c1I (configuration not stated) [iodixanol] | 0.0992 |
| COc1cc(O)ccc1C(C)=O [isopeonol] | -0.0271 |
| CC(=O)OCC(=O)[C@H]1CC[C@H]2[C@@H]3CCC4=CC(=O)CC[C@]4(C)[C@H]3CC[C@]12C [desoxycorticosterone acetate] | 0.0927 |
| N=C(N)NCCN1CCCCCCC1 [guanethidine monosulfate] | 0.104 |
| CC(C)CCCC(C)NC(C)C (configuration not stated) [iproheptine] | 0.0431 |
| C#C[C@]1(O)CC[C@H]2[C@@H]3CCC4=CC(=O)CC[C@@H]4[C@H]3CC[C@@]21CC [levonorgestrel] | -0.05 |
| CC(CN(C)C)CN1c2ccccc2Sc2ccccc21 (configuration not stated) [trimeprazine tartrate] | 0.00182 |
| CC1(C)[C@@H](OC(=O)CCC(=O)O)CC[C@]2(C)[C@H]3C(=O)C=C4[C@@H]5C[C@@](C)(C(=O)O)CC[C@]5(C)CC[C@@]4(C)[C@]3(C)CC[C@@H]12 [carbenoxolone sodium] | -0.123 |
| C=CCOC(Cn1ccnc1)c1ccc(Cl)cc1Cl (configuration not stated) [enilconazole] | 0.177 |

| SMILES | log |
| --- | --- |
| O=C(/C=C/c1ccc(O)c(O)c1)O[C@@H]1C[C@](O)(C(=O)O)C[C@@H](O)[C@H]1O [chlorogenic acid] | 0.103 |
| CC[C@@H](CO)NCCN[C@@H](CC)CO [ethambutol hydrochloride] | 0.137 |
| C[C@]1(Cn2ccnn2)[C@H](C(=O)O)N2C(=O)C[C@H]2S1(=O)=O [tazobactam] | -0.171 |
| CC(=O)OCC(=O)[C@@]1(OC(C)=O)[C@@H](C)C[C@H]2[C@@H]3C[C@H](F)C4=CC(=O)C=C[C@]4(C)[C@@]3(F)[C@@H](O)C[C@@]21C [diflorasone diacetate] | -0.024 |
| Nc1ccccc1C(=O)CC(N)C(=O)O (configuration not stated) [kynurenine] | 0.0883 |
| CCN(CC)CCOCCOC(=O)C(CC)(CC)c1ccccc1 [oxelaidin citrate] | 0.0613 |
| CCCOc1ccc(C(=O)OCCN(CC)CC)cc1N [proparacaine hydrochloride] | -0.0606 |
| CCCCC1(COC(=O)CCC(=O)O)C(=O)N(c2ccccc2)N(c2ccccc2)C1=O [suxibuzone] | -0.00598 |
| COc1cc(NC(C)CCCN)c2ncccc2c1 (configuration not stated) [primaquine phosphate] | 0.0682 |
| CC1=C(/C=C/C(C)=C/C=C/C(C)=C\C(=O)O)C(C)(C)CCC1 [isotretinon] | -0.433 |
| CC/C(=C(/CC)c1ccc(O)cc1)c1ccc(O)cc1 [diethylstilbestrol] | -0.114 |
| Cl.N=C(N)NCCC[C@H](N)C(=O)O [arginine hydrochloride] | 0.054 |
| COc1cc(O)c2c(=O)c(O)c(-c3ccccc3)oc2c1 [izalpinin] | -0.0908 |
| CSc1ccc2c(c1)N(CCC1CCCCN1C)c1ccccc1S2 (configuration not stated) [thioridazine hydrochloride] | 0.0583 |
| NC(N)=Nc1nc(CSCC/C(N)=N/S(N)(=O)=O)cs1 [famotidine] | 0.112 |
| Cc1cc(-c2ccccc2)nnc1NCCN1CCOCC1 [minaprine hydrochloride] | -0.0225 |
| COc1ccc(-c2cc(=O)c3c(OC(C)=O)cc(OC(C)=O)cc3o2)cc1 [acacetin diacetate] | 0.168 |
| COC1(C)CCC2OC2(C)CCC2C1CC2(C)C (configuration not stated) [2-methoxy-5 (6)epoxy-tetrahydrocaryophyllene] | 0.345 |
| CN(C)[C@@H]1C(O)=C(C(N)=O)C(=O)[C@@]2(O)C(O)=C3C(=O)c4c(O)cccc4[C@@](C)(O)[C@H]3[C@H](O)[C@@H]12 [oxytetracycline] | -0.216 |
| CC(=O)NCCc1ccc(O)c(-c2c(O)c(O)c3c(c2O)C(=O)c2c(cc(O)c(C(=O)O)c2C(=O)O)C3=O)c1 [laccaic acid a] | -0.0552 |
| Cc1ccsc1/C=C/C1=NCCCN1C [morantel citrate] | 0.135 |
| CCCCCCCCCCCCCCCCOP(=O)([O-])OCC[N+](C)(C)C [miltefosine] | 0.126 |
| CN(C)c1ccc(O)c2c1C[C@H]1C[C@H]3[C@H](N(C)C)C(O)=C(C(N)=O)C(=O)[C@@]3(O)C(O)=C1C2=O [minocycline hydrochloride] | -0.00497 |
| COc1cc(OC)c2c(=O)c(-c3ccc4c(c3)OCO4)coc2c1 [derrustone] | 0.104 |

| SMILES | log |
| --- | --- |
| Nc1nc(NC2CC2)c2ncn([C@H]3C=C[C@@H](CO)C3)c2n1 [abacavir sulfate] | -0.0112 |
| CCOc1ccc2nc3cc(N)ccc3c(N)c2c1 [ethacridine lactate] | -0.42 |
| CCN(CC)CCNc1ccc(CO)c2sc3ccccc3c(=O)c12 [hycanthone] | 0.0786 |
| O=c1c(O)cc([C@H]2Oc3cc(O)cc(O)c3C[C@H]2O)cc2c([C@H]3Oc4cc(O)cc(O)c4C[C@H]3O)cc(O)c(O)c12 [theaflavin] | 0.163 |
| O=C(COc1ccc(Cl)cc1)N1CCN(Cc2ccc3c(c2)OCO3)CC1 [fipexide hydrochloride] | -0.0538 |
| N[C@@H](Cc1ccc(O)cc1)C(=O)O [tyrosine] | -0.271 |
| CC(C)(C)CC(C)(C)c1ccc(O)c(Cc2ccc(Cl)cc2Cl)c1 [clofoctol] | 0.102 |
| C[C@H]1[C@H](C)CC[C@]2(C(=O)O)CC[C@]3(C)C(=CC[C@@H]4[C@@]5(C)C[C@@H](O)[C@H](O)[C@@](C)(CO)[C@@H]5CC[C@]43C)[C@H]12 [asiatic acid] | 0.0707 |
| CCN(CC)CCOC(=O)C(c1ccccc1)c1ccccc1 [adiphenine hydrochloride] | 0.00408 |
| CC(C)CCCC(C)C1CCC2C3=CCC4CC(O)CCC4(C)C3CCC21C (configuration not stated) [lathosterol] | -0.176 |
| C[C@]12CC[C@@H]3c4ccc(OS(=O)(=O)O)cc4CC[C@H]3[C@@H]1CCC2=O [estropipate] | -0.0162 |
| COc1cccc(OC)c1C(=O)N[C@@H]1C(=O)N2[C@@H]1SC(C)(C)[C@@H]2C(=O)O [methicillin sodium] | 0.234 |
| Cc1ccc(S(=O)(=O)NC(=O)NN2CCCCCC2)cc1 [tolazamide] | 0.0161 |
| O=C(O)[C@H]1O[C@@H](Oc2cc3oc(-c4ccccc4)cc(=O)c3c(O)c2O)[C@H](O)[C@@H](O)[C@@H]1O [baicalin] | 0.102 |
| Nc1ccc(S(=O)(=O)Nc2ccccn2)cc1 [sulfapyridine] | 0.124 |
| CO[C@H]1C[C@H](O[C@H]2[C@H](C)[C@@H](O[C@@H]3O[C@H](C)C[C@H](N(C)C)[C@H]3O)[C@@H](C)C[C@@]3(CO3)C(=O)[C@H](C)[C@@H](O)[C@@H](C)[C@@H](C)OC(=O)[C@@H]2C)O[C@@H](C)[C@@H]1O [oleandomycin phosphate] | -0.704 |
| O=c1[nH]c(=O)c2ccccc2o1 [carsalam] | -0.106 |
| Nc1ccn([C@@H]2O[C@H](CO)[C@@H](O)[C@@H]2O)c(=O)n1 [cytarabine] | -0.378 |
| COc1ccnc(C[S+]([O-])c2nc3cc(OC(F)F)ccc3[nH]2)c1OC (configuration not stated) [pantoprazole] | 0.0384 |
| O=C(O)[C@H](O)[C@@](O)(Cc1ccc(O)cc1)C(=O)O [piscidic acid] | 0.172 |
| CC(=O)N[C@@H](C=O)[C@@H](O)[C@H](O)[C@H](O)CO [acetylglucosamine] | 0.0426 |
| O=c1[nH]cnc2c1ncn2[C@@H]1O[C@H](CO)[C@@H](O)[C@H]1O [inosine] | 0.0977 |
| CCCCOc1cc(CC2CNC(=O)N2)ccc1OC (configuration not stated) [4-(3-butoxy-4-methoxybenzyl)imidazolidin-2-one] | 0.000294 |
| CC(C)Cn1c(=O)n(C)c(=O)c2[nH]cnc21 [3-isobutyl-1-methylxanthine (ibmx)] | 0.129 |

Looked up one by one from the entries so far, three records:

| SMILES | log |
| --- | --- |
| O=c1[nH]c(=O)c2ccccc2o1 [carsalam] | -0.106 |
| CC(=O)N[C@@H](C=O)[C@@H](O)[C@H](O)[C@H](O)CO [acetylglucosamine] | 0.0426 |
| O=C(COc1ccc(Cl)cc1)N1CCN(Cc2ccc3c(c2)OCO3)CC1 [fipexide hydrochloride] | -0.0538 |

Source: the supplement of paper PMC7024190
